Reference: doi:10.1101/2020.01.30.926501 (bioRxiv, 2020)
These are yes or no findings as the source states them, for the method shown. Tags and fused reporters may be left off the sequences shown.

Target: Kif14(709)-eGFP (human) (UniProt Q15058)
Assay: single-molecule GFP fluorescence intensity

B1: Kif14(709)-eGFP (domain or fragment, UniProt Q15058 1-709)
chain: MSLHSTHNRNNSGDILDIPSSQNSSSLNALTHSSRLKLHLKSDMSECENDDPLLRSAGKVRDINRTYVISASRKTADMPLTPNPVGRLALQRRTTRNKESSLLVSELEDTTEKTAETRLTLQRRAKTDSAEKWKTAEIDSVKMTLNVGGETENNGVSKESRTNVRIVNNAKNSFVASSVPLDEDPQVIEMMADKKYKETFSAPSRANENVALKYSSNRPPIASLSQTEVVRSGHLTTKPTQSKLDIKVLGTGNLYHRSIGKEIAKTSNKFGSLEKRTPTKCTTEHKLTTKCSLPQLKSPAPSILKNRMSNLQVKQRPKSSFLANKQERSAENTILPEEETVVQNTSAGKDPLKVENSQVTVAVRVRPFTKREKIEKASQVVFMSGKEITVEHPDTKQVYNFIYDVSFWSFDECHPHYASQTTVYEKLAAPLLERAFEGFNTCLFAYGQTGSGKSYTMMGFSEEPGIIPRFCEDLFSQVARKQTQEVSYHIEMSFFEVYNEKIHDLLVCKDENGQRKQPLRVREHPVYGPYVEALSMNIVSSYADIQSWLELGNKQRATAATGMNDKSSRSHSVFTLVMTQTKTEFVEGEEHDHRITSRINLIDLAGSERCSTAHTNGDRLKEGVSINKSLLTLGKVISALSEQANQRSVFIPYRESVLTWLLKESLGGNSKTAMIATISPAASNIEETLSTLRYANQARLIVNIAKVNE
With B1 as the binder, how does the binding read?
Its binding is “no binding”.
